Results on five molecules are retold here after article doi:10.1101/2020.06.05.136150 (bioRxiv, 2020).

Chains of the proteins cited; added tags and fusions are not shown. Lines headed by an entry give the natural chain unless they say otherwise; changes in a name come on top.
UniProt P0A6S5: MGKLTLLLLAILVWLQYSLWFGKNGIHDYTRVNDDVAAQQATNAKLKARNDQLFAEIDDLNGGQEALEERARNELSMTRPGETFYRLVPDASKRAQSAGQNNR
UniProt P0AEN4: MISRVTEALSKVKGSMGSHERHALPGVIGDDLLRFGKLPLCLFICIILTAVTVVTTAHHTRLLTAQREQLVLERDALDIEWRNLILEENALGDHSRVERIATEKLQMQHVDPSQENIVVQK
UniProt P06136: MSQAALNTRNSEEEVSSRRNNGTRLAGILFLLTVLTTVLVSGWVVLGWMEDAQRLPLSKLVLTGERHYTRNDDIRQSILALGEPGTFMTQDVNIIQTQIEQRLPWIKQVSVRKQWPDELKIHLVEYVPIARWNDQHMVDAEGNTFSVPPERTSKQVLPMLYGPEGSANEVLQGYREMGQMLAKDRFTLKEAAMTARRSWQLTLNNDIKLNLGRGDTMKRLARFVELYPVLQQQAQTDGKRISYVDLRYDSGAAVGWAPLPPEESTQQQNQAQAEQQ

Assay [1] deals with T1, FITC labeled peptide (FITC-K69-Q93) of FtsN (E. coli).
T1 sequence (peptide, FITC fluorophore attached at the N-terminus): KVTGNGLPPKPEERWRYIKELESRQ
As to the kind of experiment: fluorescence polarisation. (Polarisation of emitted light reports the rotation of a fluorescent probe.)

In assay [2] the target is T2, HisFtsN (full length FtsN) (E. coli) (UniProt P29131).
T2 sequence: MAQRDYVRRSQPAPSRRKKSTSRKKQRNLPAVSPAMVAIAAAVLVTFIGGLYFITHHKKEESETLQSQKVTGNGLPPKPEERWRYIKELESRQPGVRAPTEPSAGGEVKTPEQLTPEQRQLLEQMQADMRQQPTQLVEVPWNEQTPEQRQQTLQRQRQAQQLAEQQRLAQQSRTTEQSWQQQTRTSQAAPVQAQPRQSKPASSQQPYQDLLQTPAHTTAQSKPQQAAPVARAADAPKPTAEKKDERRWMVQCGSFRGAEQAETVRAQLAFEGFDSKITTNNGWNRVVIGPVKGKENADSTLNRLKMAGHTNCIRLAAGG
As to the kind of experiment: co-expression and co-purification.

Assay [3] has as its target T3, HisFtsN^130 (FtsN M1-R130) (E. coli) (UniProt P29131).
T3 sequence: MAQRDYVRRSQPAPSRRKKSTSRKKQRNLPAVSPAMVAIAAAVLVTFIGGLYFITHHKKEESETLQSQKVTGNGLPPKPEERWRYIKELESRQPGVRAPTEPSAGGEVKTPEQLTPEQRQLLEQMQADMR
As to the kind of experiment: co-expression and co-purification.

No constants are given. Whether binding was seen depends on the method and setting. Some entries that bind do so weakly or less than the wild type. For part of these data: Sequences can lack the tags named with a protein.

On to “FtsBLQ complex (from UniProt P0A6S5;P0AEN4;P06136)”, for which the binding result in assay [1] is given as “no binding”.

B1: PBP1a (enzyme, UniProt P02918 1-850)
chain: MKFVKYFLILAVCCILLGAGSIYGLYRYIEPQLPDVATLKDVRLQIPMQIYSADGELIAQYGEKRRIPVTLDQIPPEMVKAFIATEDSRFYEHHGVDPVGIFRAASVALFSGHASQGASTITQQLARNFFLSPERTLMRKIKEVFLAIRIEQLLTKDEILELYLNKIYLGYRAYGVGAAAQVYFGKTVDQLTLNEMAVIAGLPKAPSTFNPLYSMDRAVARRNVVLSRMLDEGYITQQQFDQTRTEAINANYHAPEIAFSAPYLSEMVRQEMYNRYGESAYEDGYRIYTTITRKVQQAAQQAVRNNVLDYDMRHGYRGPANVLWKVGESAWDNNKITDTLKALPTYGPLLPAAVTSANPQQATAMLADGSTVALSMEGVRWARPYRSDTQQGPTPRKVTDVLQTGQQIWVRQVGDAWWLAQVPEVNSALVSINPQNGAVMALVGGFDFNQSKFNRATQALRQVGSNIKPFLYTAAMDKGLTLASMLNDVPISRWDASAGSDWQPKNSPPQYAGPIRLRQGLGQSKNVVMVRAMRAMGVDYAAEYLQRFGFPAQNIVHTESLALGSASFTPMQVARGYAVMANGGFLVDPWFISKIENDQGGVIFEAKPKVACPECDIPVIYGDTQKSNVLENNDVEDVAISREQQNVSVPMPQLEQANQALVAKTGAQEYAPHVINTPLAFLIKSALNTNIFGEPGWQGTGWRAGRDLQRRDIGGKTGTTNSSKDAWFSGYGPGVVTSVWIGFDDHRRNLGHTTASGAIKDQISGYEGGAKSAQPAWDAYMKAVLEGVPEQPLTPPPGIVTVNIDRSTGQLANGGNSREEYFIEGTQPTQQAVHEVGTTIIDNGEAQELF
B1: the binding result in assay [1] was “no binding”.

B2: PBP3 (enzyme, UniProt P0AD68 1-577)
chain: MKAAAKTQKPKRQEEHANFISWRFALLCGCILLALAFLLGRVAWLQVISPDMLVKEGDMRSLRVQQVSTSRGMITDRSGRPLAVSVPVKAIWADPKEVHDAGGISVGDRWKALANALNIPLDQLSARINANPKGRFIYLARQVNPDMADYIKKLKLPGIHLREESRRYYPSGEVTAHLIGFTNVDSQGIEGVEKSFDKWLTGQPGERIVRKDRYGRVIEDISSTDSQAAHNLALSIDERLQALVYRELNNAVAFNKAESGSAVLVDVNTGEVLAMANSPSYNPNNLSGTPKEAMRNRTITDVFEPGSTVKPMVVMTALQRGVVRENSVLNTIPYRINGHEIKDVARYSELTLTGVLQKSSNVGVSKLALAMPSSALVDTYSRFGLGKATNLGLVGERSGLYPQKQRWSDIERATFSFGYGLMVTPLQLARVYATIGSYGIYRPLSITKVDPPVPGERVFPESIVRTVVHMMESVALPGGGGVKAAIKGYRIAIKTGTAKKVGPDGRYINKYIAYTAGVAPASQPRFALVVVINDPQAGKYYGGAVSAPVFGAIMGGVLRTMNIEPDALTTGDKNEFV
Consider B2, for which the binding entry in assay [1] was “no binding”.

B3: FtsW-PBP3 complex (complex, UniProt P0ABG4;P0AD68)
chain 1: MRLSLPRLKMPRLPGFSILVWISTALKGWVMGSREKDTDSLIMYDRTLLWLTFGLAAIGFIMVTSASMPIGQRLTNDPFFFAKRDGVYLILAFILAIITLRLPMEFWQRYSATMLLGSIILLMIVLVVGSSVKGASRWIDLGLLRIQPAELTKLSLFCYIANYLVRKGDEVRNNLRGFLKPMGVILVLAVLLLAQPDLGTVVVLFVTTLAMLFLAGAKLWQFIAIIGMGISAVVLLILAEPYRIRRVTAFWNPWEDPFGSGYQLTQSLMAFGRGELWGQGLGNSVQKLEYLPEAHTDFIFAIIGEELGYVGVVLALLMVFFVAFRAMSIGRKALEIDHRFSGFLACSIGIWFSFQALVNVGAAAGMLPTKGLTLPLISYGGSSLLIMSTAIMMLLRIDYETRLEKAQAFVRGSR
chain 2: MKAAAKTQKPKRQEEHANFISWRFALLCGCILLALAFLLGRVAWLQVISPDMLVKEGDMRSLRVQQVSTSRGMITDRSGRPLAVSVPVKAIWADPKEVHDAGGISVGDRWKALANALNIPLDQLSARINANPKGRFIYLARQVNPDMADYIKKLKLPGIHLREESRRYYPSGEVTAHLIGFTNVDSQGIEGVEKSFDKWLTGQPGERIVRKDRYGRVIEDISSTDSQAAHNLALSIDERLQALVYRELNNAVAFNKAESGSAVLVDVNTGEVLAMANSPSYNPNNLSGTPKEAMRNRTITDVFEPGSTVKPMVVMTALQRGVVRENSVLNTIPYRINGHEIKDVARYSELTLTGVLQKSSNVGVSKLALAMPSSALVDTYSRFGLGKATNLGLVGERSGLYPQKQRWSDIERATFSFGYGLMVTPLQLARVYATIGSYGIYRPLSITKVDPPVPGERVFPESIVRTVVHMMESVALPGGGGVKAAIKGYRIAIKTGTAKKVGPDGRYINKYIAYTAGVAPASQPRFALVVVINDPQAGKYYGGAVSAPVFGAIMGGVLRTMNIEPDALTTGDKNEFV
Take B3: the binding result in assay [1] is reported as “no binding”.

B4: PBP1b co-expressed with HisFtsN or HisFtsN^130 (enzyme, UniProt P02919 1-844)
chain: MAGNDREPIGRKGKPTRPVKQKVSRRRYEDDDDYDDYDDYEDEEPMPRKGKGKGKGRKPRGKRGWLWLLLKLAIVFAVLIAIYGVYLDQKIRSRIDGKVWQLPAAVYGRMVNLEPDMTISKNEMVKLLEATQYRQVSKMTRPGEFTVQANSIEMIRRPFDFPDSKEGQVRARLTFDGDHLATIVNMENNRQFGFFRLDPRLITMISSPNGEQRLFVPRSGFPDLLVDTLLATEDRHFYEHDGISLYSIGRAVLANLTAGRTVQGASTLTQQLVKNLFLSSERSYWRKANEAYMALIMDARYSKDRILELYMNEVYLGQSGDNEIRGFPLASLYYFGRPVEELSLDQQALLVGMVKGASIYNPWRNPKLALERRNLVLRLLQQQQIIDQELYDMLSARPLGVQPRGGVISPQPAFMQLVRQELQAKLGDKVKDLSGVKIFTTFDSVAQDAAEKAAVEGIPALKKQRKLSDLETAIVVVDRFSGEVRAMVGGSEPQFAGYNRAMQARRSIGSLAKPATYLTALSQPKIYRLNTWIADAPIALRQPNGQVWSPQNDDRRYSESGRVMLVDALTRSMNVPTVNLGMALGLPAVTETWIKLGVPKDQLHPVPAMLLGALNLTPIEVAQAFQTIASGGNRAPLSALRSVIAEDGKVLYQSFPQAERAVPAQAAYLTLWTMQQVVQRGTGRQLGAKYPNLHLAGKTGTTNNNVDTWFAGIDGSTVTITWVGRDNNQPTKLYGASGAMSIYQRYLANQTPTPLNLVPPEDIADMGVDYDGNFVCSGGMRILPVWTSDPQSLCQQSEMQQQPSGNPFDQSSQPQQQPQQQPAQQEQKDSDGVAGWIKDMFGSN
For B4, the binding entry in assay [2] and in assay [3] was “binds” throughout.
